Experimental data taken from the supplement of paper PMC3334620.
In all, about 33,000 sequences were measured (“E-score (-0.5 to 0.5)”: median about -0.0034, highest 2% from about 0.25 on). Some of the results follow.

These sequences were tested against T1, Yap3 (UniProt P38749) (assay: PBM E-score (8-mer binding enrichment) (E-score (-0.5 to 0.5)); higher = stronger / more preferred TF binding). Settings: protein concentration: 100 nM; construct: GST-full length.
T1 sequence: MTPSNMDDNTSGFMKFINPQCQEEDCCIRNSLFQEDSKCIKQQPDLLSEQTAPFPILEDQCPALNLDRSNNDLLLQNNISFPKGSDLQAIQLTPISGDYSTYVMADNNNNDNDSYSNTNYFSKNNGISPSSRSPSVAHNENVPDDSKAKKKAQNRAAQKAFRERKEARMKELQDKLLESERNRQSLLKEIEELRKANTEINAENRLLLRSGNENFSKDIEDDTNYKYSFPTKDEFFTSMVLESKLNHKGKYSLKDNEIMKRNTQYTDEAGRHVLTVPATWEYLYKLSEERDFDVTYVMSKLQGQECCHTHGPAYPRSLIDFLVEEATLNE
In short: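 Each ungapped eight-base word and its reverse complement, pooled, received an E-score from the Universal PBM Analysis Suite. Underlying scans, normalised with masliner, recorded fluorescent anti-GST bound to GST-tagged yeast transcription factors. These were applied at about 100-200 nM to universal all-10-mer Agilent arrays double-stranded by primer extension.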

Sequence	PBM E-score
AACCCCAT	-0.0254
TCTTCCCA	-0.223
CGGCCCAG	-0.332
CCTCGACG	-0.116
ACCACTAG	0.0307
ACCGTCAT	0.0559
CAGGGGTA	-0.101
CGCTAGCG	-0.112
AACCTTGT	-0.296
CCAATCCA	-0.0532
ACTCCAGC	-0.134
CCCGTCCG	-0.285
AAGAATGA	0.0757
AAGATGCT	-0.0179
GCGACAGC	-0.135
ACGTGGCC	-0.2
CGTTTCGA	-0.116
AAACTACC	0.133
AGGAGTGA	-0.0623
ATTAATTA	0.241
CAACCCGA	0.0578
ACATTGTG	0.0748
ACATGGCA	-0.0266
AGAGGGGG	-0.389
ACGCGAAG	0.0012

Sequence	PBM E-score
AAACACGG	-0.167
AAAGCTGG	-0.0132
GTGTCAAC	-0.133
AGAATTTG	0.107
GCTCCGTA	0.00319
ATATATAC	0.299
CATTCAAA	0.15
AGCTCCCG	-0.352
GTAGGAAA	0.121
AACCAGGG	-0.0811
TATATCCA	0.157
CACAGTCG	-0.0364
ATGCAACA	-0.00323
AATTGTCT	0.152
TACCGATA	0.0998
CAATTTTA	0.234
AGGGTTGG	0.153
GCCTATAA	0.0733
GCGGACAC	-0.0505
AACCCAGC	-0.19
CAACCCCG	-0.194
CGAACTCC	0.0291
GCCTCAGA	-0.0362
GCACGCTA	-0.0598
CTTGGTCA	0.0339

Sequence	PBM E-score
CGCTCATC	-0.00331
GCGGAAGA	0.0363
AGCGGGAG	-0.153
GGGTCACC	-0.343
ATATCCCC	0.0958
CAGATCGC	-0.036
ATGGGTCC	-0.192
AGCAGCTC	-0.291
AGGGCTAC	-0.147
GCGGCCCC	-0.403
TGTTTAAA	0.176
TATGGGCA	0.059
CGCGTGTC	0.145
GGATTTCA	0.0355
ATTTTAGC	-0.001
AGGTCAGG	-0.281
ATCTGGAC	-0.205
ACAGCTAA	-0.123
ATTAGGTG	0.00971
GAAAAGCC	-0.0554
ATCATACA	0.183
GAACAAGC	0.0587
ATCATTAG	0.129
ACCTGGTA	-0.124
CTGAACAG	-0.0257

A second format for some results above.
Sequence,PBM E-score
ACCACTAG,0.0307
CATTCAAA,0.15
GTAGGAAA,0.121
CAATTTTA,0.234
AGCAGCTC,-0.291

(continued)

Sequence	PBM E-score
GACTCACA	-0.0312
AGTTGATA	0.146
AGTCACTC	-0.112
ACGCGAAA	0.118
CTCGATCA	-0.104
CAGATAAG	-0.033
GTCTTATA	0.104
ACAGGGCA	0.0179
CACCTGTC	-0.0312
AGCACTCC	-0.138
GGTATTCA	0.17
CGCGCTGC	-0.00225
CCCGCTGC	-0.0956
CTGGAACA	0.117
GTCCCGCA	-0.185
GCGCTGCA	-0.0339
AGCAAACC	0.0941
ACGGTCCC	-0.379
GCCGGCTA	-0.0813
CGGTCACG	-0.12
AAACTTAC	0.13
AAAACTGT	0.187
CGTTATGA	0.0539
AGCTAAAC	-0.143
CGTCCTCC	-0.173

Sequence	PBM E-score
ATCTAGTC	-0.00285
CCCCACCA	-0.029
ATGGGATC	-0.142
GCACTGCA	0.0158
GACGCTAA	-0.164
CTGACGAA	0.123
AGAGTCGA	0.0234
ACGAGGCG	0.0872
GACAATTA	0.133
AGATAGCT	-0.177
CGGAGTAG	-0.0118
CCGAGGAG	-0.175
AGTTGAAC	0.00888
AGTGTTTC	0.0342
TGCTCACA	-0.0564
ATACTCGG	0.137
AAGAATAC	0.189
ATTCGAAC	0.139
GCGCACGC	-0.106
GCAGGCGC	-0.0699
AAGGCCCC	-0.285
ACTTACGC	0.122
CGCCCCCG	-0.356
TGGATGAA	0.168
GACTCTGA	-0.156

Sequence	PBM E-score
GTCGGGGA	-0.0604
CACGCACA	-0.0158
GCCACACA	0.00562
GAAGAATA	0.164
AGTGTAAC	-0.11
CGGGGACG	-0.285
ACGAACAA	0.228
AATTAGGG	-0.107
ACTGTGTC	-0.0354
CTGGCTAA	-0.101
CAATGGTA	0.169
ACAATCAC	0.154
AGGGAGCC	-0.339
ATGTCAGA	-0.0355
AAATGATT	0.19
AGATATCC	0.149
AGGGACAA	0.0875
ACCCCCTA	-0.384
GTAAAGGA	0.0965
CACTTGAG	-0.0401
TCCGTGAA	-0.0782
CTACTGGA	0.026
AGCGAACA	0.087
ACGATCGC	0.155
ACGAATAA	0.182

Sequence	PBM E-score
GCCGGGCC	-0.295
GGGCCTTA	-0.16
GACCAGAA	-0.00826
GCGAGGCC	-0.311
ACCAACCG	0.0526
GTACGAAC	0.212
GCAGAACA	0.12
AGGTCTCG	-0.219
GTTTCGAA	0.136
AGCCCCCA	-0.474
TCCTTGCA	-0.136
ATGTTTGA	0.0942
TCCTGGCA	0.0521
CATGTATA	0.17
CGCCGGGA	-0.262
GCGCTCCC	-0.17
CACGAACA	0.192
ATGCTGTG	0.0461
ATAACGTA	0.227
TAAGAGCA	0.123
ACGCGCAT	0.151
CAATAAAG	0.114
